# PubChem BioAssay AID2517 (National Center for Advancing Translational Sciences (NCATS), 2010)
# Protein sequences, listed by entry. Tags and fused reporters are not part of them.
# UniProt P27695, whole entry, looked up: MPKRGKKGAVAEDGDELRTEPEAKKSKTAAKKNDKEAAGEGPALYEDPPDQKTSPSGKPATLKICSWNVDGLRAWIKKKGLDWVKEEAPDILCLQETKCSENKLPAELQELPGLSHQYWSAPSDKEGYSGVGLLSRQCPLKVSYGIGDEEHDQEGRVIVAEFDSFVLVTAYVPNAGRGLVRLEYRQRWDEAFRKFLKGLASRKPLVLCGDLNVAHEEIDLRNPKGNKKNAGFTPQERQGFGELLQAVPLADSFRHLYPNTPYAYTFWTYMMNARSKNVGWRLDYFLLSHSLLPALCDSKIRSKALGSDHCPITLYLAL
# Out of some 350,000 compounds screened, about 1,200 (0.34%) were called active. This list was built around the results that the source calls inconclusive (neither active nor inactive); the mix of calls is not that of the screen. The call rests on the fitted dose curve; in most records, active means well fitted inhibition curve with a large enough effect; inconclusive means small, poorly fitted or top-dose-only effect; inactive means no such curve, though single readings can be large or run the other way. A potency beside an inconclusive call is a rough fit, not a confirmed value.
# Molecular target: DNA repair nuclease/redox regulator APEX1 (Homo sapiens) (UniProt P27695)
# Experiment: qHTS Assay for Inhibitors of the Human Apurinic/apyrimidinic Endonuclease 1 (APE1); further: nearly all actives have a fitted effect of over 55% in size;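 on activity change, negative = inhibition: plate controls were vehicle for no effect and reference inhibitor for full effect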
# Conditions: recombinant APE1, TAMRA/BHQ-2 abasic DNA cleavage fluorescence; activity change, negative = inhibition: at 65.8 µM (top of the series)
# Text: The apurinic/apyrimidinic endonuclease APE1 is the primary mammalian enzyme responsible for the removal of abasic (or AP) sites in DNA and functions centrally in the base excision DNA repair (BER) pathway. […] Thus, targeting APE1 could improve the efficacy of current treatment paradigms by promoting selective sensitization or protection of diseased and normal cells, respectively.
# Inhibition of APE1 activity was screened by utilizing double-stranded short substrate containing tetrahydrofuran (THF) abasic site labeled with rhodamine-type fluorophore (TAMRA) at the 5'-end and with non-fluorescent Black Hole Quencher-2 (BHQ-2) at the opposing 3'-end. An increase in the fluorescence intensity due to incision of the abasic site by APE1 was used to measure the enzyme activity.
# NIH Chemical Genomics Center [NCGC]
# NIH Molecular Libraries Probe Centers Network [MLPCN]
# Assay Provider: David M. Wilson, III, National Institute on Aging, NIH
# Three uL of enzyme solution (0.75 nM APE1 final concentration) was dispensed to 1536-well Greiner black solid bottom plates. […] The plates were incubated for 15 min at room temperature, and then 1 uL of substrate solution (50 nM final concentration of TAMRA/BHQ-2) was added to start the reaction. The plates were immediately transferred into ViewLux High-throughput CCD imager (Perkin-Elmer) in order to measure the reaction progress in kinetic mode (three reads every 60 seconds) using 525 nm excitation and 598 nm emission fluorescence protocol. The fluorescence intensity difference between the third and the first time points was used to compute reaction progress. Results were normalized to buffer only columns and NSC13755 positive controls and negative control DMSO treated wells.
# Potency means the concentration at half of the fitted maximal effect.
Compound,Potency,"activity change, negative = inhibition"
Cc1ccn2c(C(=O)N/N=C\c3ccc4c(c3)OCO4)c(C)nc2c1,"inconclusive: 0.0141 µM [inhibitor, full curve, poor fit]",–
Cc1nnc(SCC(=O)Nc2sccc2C#N)s1,–,inactive: 1.43%
COc1cccc(-n2c(N)c(C(=O)Nc3c(C)n(C)n(-c4ccccc4)c3=O)c3nc4ccccc4nc32)c1,"inconclusive: 15.8 µM [inhibitor, partial curve, poor fit]",–
O=[N+]([O-])c1ccc2nc(-c3ccc(Cl)cc3)n(OCc3ccccc3)c2c1,–,inactive: -4.89%
Cc1cccc(NC(=O)COn2nnc3ccc(S(C)(=O)=O)cc32)c1,"inconclusive: 22.4 µM [inhibitor, single point]",–
O=C(Nc1ccncc1)c1cccc2ccccc12,"inconclusive: 0.0316 µM [inhibitor, full curve]",–
CC(=O)O[C@H](C(=O)O[C@@H]1C[C@@H](CCC[C@H]2O[C@H](C(=O)OC(C)C)CC[C@@H]2C)O[C@@H](CC#N)C1)c1ccccc1,–,inactive: 16.1%
CCCc1nc2ccc(NC(=O)NCCC(=O)OCC)cc2c(=O)n1Cc1cccc(Cl)c1,"inconclusive: 25.1 µM [inhibitor, single point]",–
CC1(C)S[C@@H]2[C@H](NC(=O)[C@H](C(=O)O)c3ccsc3)C(=O)N2[C@H]1C(=O)O,–,inactive: 5.23%
Cc1ccc(S(=O)(=O)Nc2ccc3oc(=O)sc3c2)c(C)c1,"inconclusive: 39.8 µM [inhibitor, single point]",–
Cc1ccc(Cn2cccc(NC(=O)NCc3ccccc3)c2=O)cc1,"inconclusive: 0.0316 µM [inhibitor, full curve, poor fit]",–
O=C(NCc1cc(Br)cc(Br)c1OC(=O)c1ccccc1[N+](=O)[O-])c1ccccc1,"inconclusive: 15.8 µM [inhibitor, single point]",–
O=C(NC(=S)Nc1cccc(O)c1)c1ccco1,–,inactive: 8.26%
Cc1cc(C(=O)NNC(=S)Nc2ccccc2C)cs1,"inconclusive: 3.55 µM [inhibitor, partial curve, poor fit]",–
O=C1CC(c2ccccc2)Oc2cc(O)cc(O)c21 (stereo unspecified),"inconclusive: 1.78 µM [inhibitor, full curve]",–
COc1ccc2c(c1)Cc1sc(NC(=O)c3cccnc3)nc1-2,"inconclusive: 10 µM [inhibitor, partial curve]",–
Cc1ccc(NC(=O)CC2S/C(=N/N=C/C=C/c3ccccc3)NC2=O)cc1Cl (stereo unspecified),"inconclusive: 5.01 µM [inhibitor, partial curve]",–
COc1ccc(Oc2ncc3nc(-c4cc(F)cc(F)c4)c(=O)n(C4CC4)c3n2)cc1,"inconclusive: 3.98 µM [inhibitor, single point]",–
Cc1nonc1OCCn1c([N+](=O)[O-])cnc1C,"inconclusive: 28.2 µM [inhibitor, partial curve]",–
COc1ccc(-c2cc(-c3ccc(N)cc3)nc(N)c2C#N)cc1OC,"inconclusive: 39.8 µM [inhibitor, single point]",–
CC1CC=CC2C1C(=O)N(Cc1ccccc1)C2c1ccc2ccccc2c1C=Cc1ccccc1 (stereo unspecified),"inconclusive: 5.01 µM [inhibitor, single point]",–
CC(C)(C)OC(=O)NC(Cc1ccccc1)C(O)c1ccco1 (stereo unspecified),"inconclusive: 10 µM [inhibitor, partial curve]",–

Compound,Potency,"activity change, negative = inhibition"
CCc1nnc(NC(=O)c2ccc(S(=O)(=O)N(CC)Cc3ccccc3)cc2)o1,"inconclusive: 15.8 µM [inhibitor, partial curve, poor fit]",–
C=C[C@@H](C1=CC(=O)C(OC)=C(OC)C1=O)c1ccccc1,–,inactive: 0.755%
O=C(COC(=O)c1ccccn1)NCc1cccs1,–,inactive: 17.8%
CC1=C2[C@@H]([C@H](C)CC[C@H]2/C=C(\C)C(=O)O)[C@H](O)C1,–,inactive: -2.71%
Cc1csc(SCC(=O)Nc2sc3c(c2C#N)CCC3)n1,"inconclusive: 35.5 µM [inhibitor, single point]",–
Cc1ccc(C)c(N2CCN(C(=O)Nc3ccc4c(c3)N(C)C(=O)CS4)CC2)c1,"inconclusive: 17.8 µM [inhibitor, partial curve, poor fit]",–
COc1cc(CNn2c(C)n[nH]c2=S)cc(Cl)c1OCc1ccccc1,"inconclusive: 44.7 µM [inhibitor, single point]",–
CC1(C)CC(=O)C2=C(C1)OC(N)=C(C#N)C2c1ccccc1[N+](=O)[O-] (stereo unspecified),–,inactive: -2.51%
O=c1c(O[C@@H]2O[C@H](CO)C(O)C2O)c(-c2ccc(O)c(O)c2)oc2cc(O)cc(O)c12 (stereo partly specified),–,inactive: -32.8%
Cc1ccc(NC(=O)C2CCN(S(=O)(=O)c3ccc(F)cc3)CC2)cc1,"inconclusive: 28.2 µM [inhibitor, single point]",–
Cc1ccc(NC(=O)c2c3c(nc4ccccc24)CCC3)cc1,–,inactive: -3.92%
O=C(Nc1ccc2c(c1)C(=O)NC2=O)c1cccc(C(F)(F)F)c1,–,inactive: -6.1%
CC(=O)Nc1ccc(NC(=O)C(C)OC(=O)/C=C/c2cn(-c3ccccc3)nc2-c2cccnc2)cc1 (stereo unspecified),"inconclusive: 6.31 µM [inhibitor, partial curve]",–
COc1ccc(-c2[nH]ncc2CNC(C)c2cn(C)nc2C)c(F)c1 (stereo unspecified),"inconclusive: 1.41 µM [inhibitor, full curve, poor fit]",–
CC1(O)CCC(C(C)(C)O)CC1 (stereo unspecified),"inconclusive: 17.8 µM [inhibitor, partial curve]",–
COC(=O)c1cc(NC(=O)C2COc3ccccc3O2)cc(C(=O)OC)c1 (stereo unspecified),"inconclusive: 0.355 µM [inhibitor, full curve, poor fit]",–
COc1ccccc1Nc1nc(-c2cccc([N+](=O)[O-])c2)cs1,"inconclusive: 44.7 µM [inhibitor, single point]",–
Clc1ccc2c(c1)c1cc(Cl)ccc1n2CN1CCOCC1,"inconclusive: 8.91 µM [inhibitor, single point]",–
CCOC(=O)n1ccn(C)c1=S,"inconclusive: 0.891 µM [inhibitor, full curve, poor fit]",–
O=C(NNC(=O)c1cc2cc(Br)ccc2oc1=O)c1ccc(O)cc1O,"inconclusive: 31.6 µM [inhibitor, partial curve]",–
Cc1nn2cc(-c3ccc(Cl)cc3)nc2s1,"inconclusive: 44.7 µM [inhibitor, single point]",–
CCCn1c(COc2ccccc2OC)nc2ccccc21,–,inactive: 54.5%

Compound,Potency,"activity change, negative = inhibition"
CCCCn1c(SCC(=O)NCc2ccco2)nc2ccc(N3CCOCC3)cc2c1=O,–,inactive: 7.35%
COc1ccccc1CNC(=O)CN1C(=O)c2ccccc2S1(=O)=O,"inconclusive: 1.19 µM [inhibitor, single point]",–
CNC(=O)/C(C#N)=C1\SC(Cc2ccc(F)cc2)C(=O)N1c1ccccc1C (stereo unspecified),"inconclusive: 3.16 µM [inhibitor, single point]",–
COC(=O)c1ccc(COc2ccc3c(c2)CCC3)o1,"inconclusive: 3.55 µM [inhibitor, single point]",–
CNC(=S)NNC(=O)c1c(C)nc2cc(C)ccn12,"inconclusive: 12.6 µM [inhibitor, partial curve]",–
COc1ccc(CCN2CCC[C@H](CN3CCc4cc(OC)c(OC)cc4CC3=O)C2)cc1OC,–,inactive: 27%
Cn1c(SCC(=O)N/N=C/c2cc([N+](=O)[O-])ccc2O)nnc1-c1ccccc1,–,inactive: 4.41%
N#CCC(=O)Nc1ccc(C(F)(F)F)cc1N1CCOCC1,"inconclusive: 15.8 µM [inhibitor, single point]",–
CCOC(=O)c1[nH]cnc1N=Nc1c(O)ccc2ccccc12,"inconclusive: 7.08 µM [inhibitor, full curve, poor fit]",–
CC1CCC2C(=O)N3C(CCC(C)[C@@H]3c3cccc(N4CCOCC4)c3)C(=O)N2C1c1cccc(Br)c1 (stereo partly specified),"inconclusive: 7.08 µM [inhibitor, single point]",–
O=c1cc(CN2CCN(c3ccccc3)CC2)nc2scc(-c3ccccc3)n12,"inconclusive: 3.98 µM [inhibitor, single point]",–
COc1ccc(C(=O)/C=C/c2cn(CC(O)CN3CCN(C)CC3)c3ccccc23)cc1OC (stereo unspecified),"inconclusive: 3.55 µM [inhibitor, single point]",–
COC(=O)C(C(=O)Nc1ccc(OC)cc1)C1CCCCCC1 (stereo unspecified),"inconclusive: 44.7 µM [inhibitor, single point]",–
CCNC(=S)N(CCc1c(C)[nH]c2ccc(C)cc12)Cc1ccco1,"inconclusive: 5.01 µM [inhibitor, partial curve, poor fit]",–
C[C@]1(C(=O)NCC2CC2)C=C[C@@H](Cc2ccccc2)N1C(=O)c1ccccc1,"inconclusive: 0.0028 µM [inhibitor, full curve, poor fit]",–
CN(C)c1ccc(NC(=O)COC(=O)c2ccc3c(c2)OCO3)cc1,–,inactive: 29%
Cc1ccc(Cn2c(=O)c3cccnc3n(CC(=O)Nc3cccc(C(F)(F)F)c3)c2=O)cc1,–,inactive: 5.64%
CCOc1nc(C)cc(C)c1S(=O)(=O)c1ccc(Cl)cc1,"inconclusive: 31.6 µM [inhibitor, partial curve, poor fit]",–
O=C(Nc1ccccc1C(=O)O)/C(=C/c1ccc([N+](=O)[O-])cc1)NC(=O)c1ccc(Br)o1,"inconclusive: 28.2 µM [inhibitor, single point]",–
COc1ccc(CCN=C(N)NS(=O)(=O)c2ccc3ccccc3c2)cc1,"inconclusive: 7.94 µM [inhibitor, single point]",–
Cc1cc(=O)oc(C)c1C(=O)NCCCN1CCN(c2ccccc2F)CC1,"inconclusive: 56.2 µM [inhibitor, partial curve, poor fit]",–
COc1ccc(N(CC(=O)NC2CCCC2)C(=O)Cn2nnc(-c3ccc(F)cc3)n2)cc1OC,"inconclusive: 0.0071 µM [inhibitor, full curve]",–

# Whole records, looked up by structure:
# CCCCn1c(SCC(=O)NCc2ccco2)nc2ccc(N3CCOCC3)cc2c1=O in the list: activity change, negative = inhibition: inactive: 7.35%
# COC(=O)C(C(=O)Nc1ccc(OC)cc1)C1CCCCCC1 (stereo unspecified) in the list: Potency: inconclusive: 44.7 µM [inhibitor, single point]
# COc1ccccc1CNC(=O)CN1C(=O)c2ccccc2S1(=O)=O in the list: Potency: inconclusive: 1.19 µM [inhibitor, single point]
# CCOc1nc(C)cc(C)c1S(=O)(=O)c1ccc(Cl)cc1 in the list: Potency: inconclusive: 31.6 µM [inhibitor, partial curve, poor fit]
